Reference: paper PMC2702278
No constants are given. Whether binding was seen depends on the method and setting. In cells and extracts the contact can be indirect. These calls come from enrichment with a bait or labelling near it, and not all partners need be listed.

Chains of the proteins cited; added tags and fusions are not shown.
UniProt Q9Y2Y9: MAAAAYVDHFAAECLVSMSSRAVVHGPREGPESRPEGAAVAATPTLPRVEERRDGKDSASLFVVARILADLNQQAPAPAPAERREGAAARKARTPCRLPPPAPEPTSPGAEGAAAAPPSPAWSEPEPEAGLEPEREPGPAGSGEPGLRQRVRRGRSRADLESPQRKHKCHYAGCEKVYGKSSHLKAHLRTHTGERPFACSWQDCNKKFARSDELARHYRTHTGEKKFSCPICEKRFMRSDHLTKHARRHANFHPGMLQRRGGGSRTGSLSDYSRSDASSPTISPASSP
UniProt Q9UJX4: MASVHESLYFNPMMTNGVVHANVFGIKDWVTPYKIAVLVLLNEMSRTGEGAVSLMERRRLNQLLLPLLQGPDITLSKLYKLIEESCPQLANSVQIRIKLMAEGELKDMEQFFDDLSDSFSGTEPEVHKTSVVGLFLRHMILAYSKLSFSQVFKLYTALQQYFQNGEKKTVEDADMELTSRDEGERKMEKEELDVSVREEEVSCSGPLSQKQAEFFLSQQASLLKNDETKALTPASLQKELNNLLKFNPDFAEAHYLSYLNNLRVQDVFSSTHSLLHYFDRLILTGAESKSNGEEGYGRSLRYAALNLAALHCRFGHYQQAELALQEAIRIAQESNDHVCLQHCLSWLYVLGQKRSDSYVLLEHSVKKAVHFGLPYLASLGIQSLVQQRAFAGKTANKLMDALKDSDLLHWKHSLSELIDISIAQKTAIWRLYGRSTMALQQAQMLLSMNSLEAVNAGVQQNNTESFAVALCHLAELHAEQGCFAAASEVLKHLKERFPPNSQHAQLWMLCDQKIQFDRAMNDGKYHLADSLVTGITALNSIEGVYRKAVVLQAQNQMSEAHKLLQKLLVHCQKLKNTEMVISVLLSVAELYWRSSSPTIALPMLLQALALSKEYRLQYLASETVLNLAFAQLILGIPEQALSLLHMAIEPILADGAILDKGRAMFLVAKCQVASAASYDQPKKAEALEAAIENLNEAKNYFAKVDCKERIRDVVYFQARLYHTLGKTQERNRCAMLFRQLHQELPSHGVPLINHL
UniProt O43426: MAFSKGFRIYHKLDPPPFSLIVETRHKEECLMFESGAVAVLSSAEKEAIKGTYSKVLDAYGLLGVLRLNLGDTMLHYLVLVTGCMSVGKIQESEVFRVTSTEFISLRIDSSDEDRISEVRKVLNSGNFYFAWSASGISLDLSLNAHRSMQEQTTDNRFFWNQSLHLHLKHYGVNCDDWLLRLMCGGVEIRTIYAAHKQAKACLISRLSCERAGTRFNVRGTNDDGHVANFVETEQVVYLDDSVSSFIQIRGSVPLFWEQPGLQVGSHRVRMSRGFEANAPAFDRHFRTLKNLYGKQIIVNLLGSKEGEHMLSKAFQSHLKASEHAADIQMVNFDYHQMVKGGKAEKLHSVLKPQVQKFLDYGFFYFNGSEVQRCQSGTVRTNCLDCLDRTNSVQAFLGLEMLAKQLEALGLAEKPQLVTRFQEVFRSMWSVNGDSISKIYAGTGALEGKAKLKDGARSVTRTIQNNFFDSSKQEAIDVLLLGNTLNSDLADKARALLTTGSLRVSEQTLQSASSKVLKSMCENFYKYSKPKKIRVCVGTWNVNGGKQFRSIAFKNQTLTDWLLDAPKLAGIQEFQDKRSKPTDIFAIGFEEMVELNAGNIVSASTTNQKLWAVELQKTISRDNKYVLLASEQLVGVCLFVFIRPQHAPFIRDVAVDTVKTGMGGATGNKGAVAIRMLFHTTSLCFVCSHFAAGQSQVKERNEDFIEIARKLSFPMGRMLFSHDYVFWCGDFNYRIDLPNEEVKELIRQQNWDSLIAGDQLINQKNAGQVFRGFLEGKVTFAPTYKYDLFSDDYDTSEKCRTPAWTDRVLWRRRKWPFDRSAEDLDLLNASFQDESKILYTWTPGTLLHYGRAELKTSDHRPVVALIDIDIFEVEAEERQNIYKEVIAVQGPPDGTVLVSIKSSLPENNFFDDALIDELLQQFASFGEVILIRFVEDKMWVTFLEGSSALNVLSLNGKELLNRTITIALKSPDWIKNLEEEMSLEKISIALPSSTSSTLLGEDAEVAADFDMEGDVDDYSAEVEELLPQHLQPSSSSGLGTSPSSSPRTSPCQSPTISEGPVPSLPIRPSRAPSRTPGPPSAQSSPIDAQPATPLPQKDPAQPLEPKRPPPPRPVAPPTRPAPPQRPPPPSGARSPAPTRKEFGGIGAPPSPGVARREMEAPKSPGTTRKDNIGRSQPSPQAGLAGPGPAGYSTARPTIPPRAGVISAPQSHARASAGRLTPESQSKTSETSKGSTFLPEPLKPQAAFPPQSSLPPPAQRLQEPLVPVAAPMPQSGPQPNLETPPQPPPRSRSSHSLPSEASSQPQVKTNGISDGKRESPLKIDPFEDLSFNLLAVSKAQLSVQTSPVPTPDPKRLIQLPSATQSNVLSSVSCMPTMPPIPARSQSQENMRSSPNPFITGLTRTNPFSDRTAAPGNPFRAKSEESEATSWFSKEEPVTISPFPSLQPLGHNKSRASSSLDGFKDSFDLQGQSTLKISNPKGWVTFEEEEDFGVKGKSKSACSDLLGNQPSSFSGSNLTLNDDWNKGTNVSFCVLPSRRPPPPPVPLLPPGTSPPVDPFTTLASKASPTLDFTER

B1: Dab2 (protein, UniProt P98082 1-770)
chain: MSNEVETSATNGQPDQQAAPKAPSKKEKKKGPEKTDEYLLARFKGDGVKYKAKLIGIDDVPDARGDKMSQDSMMKLKGMAAAGRSQGQHKQRIWVNISLSGIKIIDEKTGVIEHEHPVNKISFIARDVTDNRAFGYVCGGEGQHQFFAIKTGQQAEPLVVDLKDLFQVIYNVKKKEEEKKKIEEASKAVENGSEALMILDDQTNKLKSGVDQMDLFGDMSTPPDLNSPTESKDILLVDLNSEIDTNQNSLRENPFLTNGITSCSLPRPTPQASFLPENAFSANLNFFPTPNPDPFRDDPFTQPDQSTPSSFDSLKSPDQKKENSSSSSTPLSNGPLNGDVDYFGQQFDQISNRTGKQEAQAGPWPFSSSQTQPAVRTQNGVSEREQNGFSVKSSPNPFVGSPPKGLSIQNGVKQDLESSVQSSPHDSIAIIPPPQSTKPGRGRRTAKSSANDLLASDIFAPPVSEPSGQASPTGQPTALQPNPLDLFKTSAPAPVGPLVGLGGVTVTLPQAGPWNTASLVFNQSPSMAPGAMMGGQPSGFSQPVIFGTSPAVSGWNQPSPFAASTPPPVPVVWGPSASVAPNAWSTTSPLGNPFQSNIFPAPAVSTQPPSMHSSLLVTPPQPPPRAGPPKDISSDAFTALDPLGDKEIKDVKEMFKDFQLRQPPAVPARKGEQTSSGTLSAFASYFNSKVGIPQENADHDDFDANQLLNKINEPPKPAPRQVSLPVTKSTDNAFENPFFKDSFGSSQASVASSQPVSSEMYRDPFGNPFA
B2: SHCBP1 (protein, UniProt Q8NEM2 1-672)
chain: MADGSLTGGGLEAAAMAPERMGWAVEQELASLEKGLFQDEDSCSDCSYRDKPGSSLQSFMPEGKTFFPEIFQTNQLLFYERFRAYQDYILADCKASEVQEFTAEFLEKVLEPSGWRAVWHTNVFKVLVEITDVDFAALKAVVRLAEPYLCDSQVSTFTMECMKELLDLKEHRLPLQELWVVFDDSGVFDQTALAIEHVRFFYQNIWRSWDEEEEDEYDYFVRCVEPRLRLHYDILEDRVPSGLIVDYHNLLSQCEESYRKFLNLRSSLSNCNSDSEQENISMVEGLKLYSEMEQLKQKLKLIENPLLRYVFGYQKNSNIQAKGVRSSGQKITHVVSSTMMAGLLRSLLTDRLCQEPGEEEREIQFHSDPLSAINACFEGDTVIVCPGHYVVHGTFSIADSIELEGYGLPDDIVIEKRGKGDTFVDCTGADIKISGIKFVQHDAVEGILIVHRGKTTLENCVLQCETTGVTVRTSAEFLMKNSDLYGAKGAGIEIYPGSQCTLSDNGIHHCKEGILIKDFLDEHYDIPKISMVNNIIHNNEGYGVVLVKPTIFSDLQENAEDGTEENKALKIQTSGEPDVAERVDLEELIECATGKMELCARTDPSEQVEGNCEIVNELIAASTQKGQIKKKRLSELGITQADDNLMSQEMFVGIVGNQFKWNGKGSFGTFLF
B3: CIZ1 (protein, UniProt Q9ULV3 1-898)
chain: MFSQQQQQQLQQQQQQLQQLQQQQLQQQQLQQQQLLQLQQLLQQSPPQAPLPMAVSRGLPPQQPQQPLLNLQGTNSASLLNGSMLQRALLLQQLQGLDQFAMPPATYDTAGLTMPTATLGNLRGYGMASPGLAAPSLTPPQLATPNLQQFFPQATRQSLLGPPPVGVPMNPSQFNLSGRNPQKQARTSSSTTPNRKDSSSQTMPVEDKSDPPEGSEEAAEPRMDTPEDQDLPPCPEDIAKEKRTPAPEPEPCEASELPAKRLRSSEEPTEKEPPGQLQVKAQPQARMTVPKQTQTPDLLPEALEAQVLPRFQPRVLQVQAQVQSQTQPRIPSTDTQVQPKLQKQAQTQTSPEHLVLQQKQVQPQLQQEAEPQKQVQPQVQPQAHSQGPRQVQLQQEAEPLKQVQPQVQPQAHSQPPRQVQLQLQKQVQTQTYPQVHTQAQPSVQPQEHPPAQVSVQPPEQTHEQPHTQPQVSLLAPEQTPVVVHVCGLEMPPDAVEAGGGMEKTLPEPVGTQVSMEEIQNESACGLDVGECENRAREMPGVWGAGGSLKVTILQSSDSRAFSTVPLTPVPRPSDSVSSTPAATSTPSKQALQFFCYICKASCSSQQEFQDHMSEPQHQQRLGEIQHMSQACLLSLLPVPRDVLETEDEEPPPRRWCNTCQLYYMGDLIQHRRTQDHKIAKQSLRPFCTVCNRYFKTPRKFVEHVKSQGHKDKAKELKSLEKEIAGQDEDHFITVDAVGCFEGDEEEEEDDEDEEEIEVEEELCKQVRSRDISREEWKGSETYSPNTAYGVDFLVPVMGYICRICHKFYHSNSGAQLSHCKSLGHFENLQKYKAAKNPSPTTRPVSRRCAINARNALTALFTSSGRPPSQPNTQDKTPSKVTARPSQPPLPRRSTRLKT
B4: Dystroglycan 1 (protein, UniProt Q14118 30-895)
chain: HWPSEPSEAVRDWENQLEASMHSVLSDLHEAVPTVVGIPDGTAVVGRSFRVTIPTDLIASSGDIIKVSAAGKEALPSWLHWDSQSHTLEGLPLDTDKGVHYISVSATRLGANGSHIPQTSSVFSIEVYPEDHSELQSVRTASPDPGEVVSSACAADEPVTVLTVILDADLTKMTPKQRIDLLHRMRSFSEVELHNMKLVPVVNNRLFDMSAFMAGPGNAKKVVENGALLSWKLGCSLNQNSVPDIHGVEAPAREGAMSAQLGYPVVGWHIANKKPPLPKRVRRQIHATPTPVTAIGPPTTAIQEPPSRIVPTPTSPAIAPPTETMAPPVRDPVPGKPTVTIRTRGAIIQTPTLGPIQPTRVSEAGTTVPGQIRPTMTIPGYVEPTAVATPPTTTTKKPRVSTPKPATPSTDSTTTTTRRPTKKPRTPRPVPRVTTKVSITRLETASPPTRIRTTTSGVPRGGEPNQRPELKNHIDRVDAWVGTYFEVKIPSDTFYDHEDTTTDKLKLTLKLREQQLVGEKSWVQFNSNSQLMYGLPDSSHVGKHEYFMHATDKGGLSAVDAFEIHVHRRPQGDRAPARFKAKFVGDPALVLNDIHKKIALVKKLAFAFGDRNCSTITLQNITRGSIVVEWTNNTLPLEPCPKEQIAGLSRRIAEDDGKPRPAFSNALEPDFKATSITVTGSGSCRHLQFIPVVPPRRVPSEAPPTEVPDRDPEKSSEDDVYLHTVIPAVVVAAILLIAGIIAMICYRKKRKGKLTLEDQATFIKKGVPIIFADELDDSKPPPSSSMPLILQEEKAPLPPPEYPNQSVPETTPLNQDTMGEYTPLRDEDPNAPPYQPPPPFTAPMEGKGSRPKNMTPYRSPPPYVPP
B5: SYDE1 (protein, UniProt Q6ZW31 1-735)
chain: MAEPLLRKTFSRLRGREKLPRKKSDAKERGHPAQRPEPSPPEPEPQAPEGSQAGAEGPSSPEASRSPARGAYLQSLEPSSRRWVLGGAKPAEDTSLGPGVPGTGEPAGEIWYNPIPEEDPRPPAPEPPGPQPGSAESEGLAPQGAAPASPPTKASRTKSPGPARRLSIKMKKLPELRRRLSLRGPRAGRERERAAPAGSVISRYHLDSSVGGPGPAAGPGGTRSPRAGYLSDGDSPERPAGPPSPTSFRPYEVGPAARAPPAALWGRLSLHLYGLGGLRPAPGATPRDLCCLLQVDGEARARTGPLRGGPDFLRLDHTFHLELEAARLLRALVLAWDPGVRRHRPCAQGTVLLPTVFRGCQAQQLAVRLEPQGLLYAKLTLSEQQEAPATAEPRVFGLPLPLLVERERPPGQVPLIIQKCVGQIERRGLRVVGLYRLCGSAAVKKELRDAFERDSAAVCLSEDLYPDINVITGILKDYLRELPTPLITQPLYKVVLEAMARDPPNRVPPTTEGTRGLLSCLPDVERATLTLLLDHLRLVSSFHAYNRMTPQNLAVCFGPVLLPARQAPTRPRARSSGPGLASAVDFKHHIEVLHYLLQSWPDPRLPRQSPDVAPYLRPKRQPPLHLPLADPEVVTRPRGRGGPESPPSNRYAGDWSVCGRDFLPCGRDFLSGPDYDHVTGSDSEDEDEEVGEPRVTGDFEDDFDAPFNPHLNLKDFDALILDLERELSKQINVCL
B6: Atherin (protein, UniProt Q6SPF0 1-538)
chain: MAGPPALPPPETAAAATTAAAASSSAASPHYQEWILDTIDSLRSRKARPDLERICRMVRRRHGPEPERTRAELEKLIQQRAVLRVSYKGSISYRNAARVQPPRRGATPPAPPRAPRGAPAAAAAAAPPPTPAPPPPPAPVAAAAPARAPRAAAAAATAPPSPGPAQPGPRAQRAAPLAAPPPAPAAPPAVAPPAGPRRAPPPAVAAREPPLPPPPQPPAPPQQQQPPPPQPQPPPEGGAVRAGGAARPVSLREVVRYLGGSGGAGGRLTRGRVQGLLEEEAAARGRLERTRLGALALPRGDRPGRAPPAASARPSRSKRGGEERVLEKEEEEDDDEDEDEEDDVSEGSEVPESDRPAGAQHHQLNGERGPQSAKERVKEWTPCGPHQGQDEGRGPAPGSGTRQVFSMAAMNKEGGTASVATGPDSPSPVPLPPGKPALPGADGTPFGCPPGRKEKPSDPVEWTVMDVVEYFTEAGFPEQATAFQEQEIDGKSLLLMQRTDVLTGLSIRLGPALKIYEHHIKVLQQGHFEDDDPDGFLG
B7: MgcRacGAP (protein, UniProt Q9H0H5 1-632)
chain: MDTMMLNVRNLFEQLVRRVEILSEGNEVQFIQLAKDFEDFRKKWQRTDHELGKYKDLLMKAETERSALDVKLKHARNQVDVEIKRRQRAEADCEKLERQIQLIREMLMCDTSGSIQLSEEQKSALAFLNRGQPSSSNAGNKRLSTIDESGSILSDISFDKTDESLDWDSSLVKTFKLKKREKRRSTSRQFVDGPPGPVKKTRSIGSAVDQGNESIVAKTTVTVPNDGGPIEAVSTIETVPYWTRSRRKTGTLQPWNSDSTLNSRQLEPRTETDSVGTPQSNGGMRLHDFVSKTVIKPESCVPCGKRIKFGKLSLKCRDCRVVSHPECRDRCPLPCIPTLIGTPVKIGEGMLADFVSQTSPMIPSIVVHCVNEIEQRGLTETGLYRISGCDRTVKELKEKFLRVKTVPLLSKVDDIHAICSLLKDFLRNLKEPLLTFRLNRAFMEAAEITDEDNSIAAMYQAVGELPQANRDTLAFLMIHLQRVAQSPHTKMDVANLAKVFGPTIVAHAVPNPDPVTMLQDIKRQPKVVERLLSLPLEYWSQFMMVEQENIDPLHVIENSNAFSTPQTPDIKVSLLGPVTTPEHQLLKTPSSSSLSQRVRSTLTKNTPRFGSKSKSATNLGRQGNFFASPMLK

molecular target: GST-fusion SH3C domain of Ruk/CIN85 (UniProt Q96B97); assay: affinity purification with mass spectrometry; GST-fusion SH3 domain (about 10 μg on 40 μl Glutathione Sepharose 4B) incubated 4 h at 4°C with HeLa lysate pre-cleared on GST beads; 20 mM Tris pH 7.5, 150 mM NaCl, 5 mM EDTA, 5% glycerol, 0.5% Triton X-100 (washes 0.1%); SDS-PAGE, in-gel trypsin digestion, LC-MS/MS; hits also found with GST alone removed; only the target purified

binding, binds:
KLF13 (from UniProt Q9Y2Y9 1-288), hnRNPK (from UniProt P61978 1-463), APC5 (from UniProt Q9UJX4 1-755), Synaptojanin 1 (from UniProt O43426 1-1573), B1, B2, B3, B4, B5, B6, B7
